Results: PubChem BioAssay (EPA / NIEHS)
The inconclusive results got no clear call from the source; some entries with a clear call stand among them for comparison. For some of these results: A potency beside an inconclusive call is a rough fit, not a confirmed value. A structure can be active in one record and inactive in another. The source made the active and inactive calls. The calls were made as follows: active = hit-call score of the fitted dose curve at least 0.9, where 1 is the maximum; inconclusive = response in the unintended direction; inactive = score below 0.9.

Amino acid sequences for entries named in this document (tags omitted). A change or cut given only in a name is not applied to a line headed by its entry.
UniProt Q07869: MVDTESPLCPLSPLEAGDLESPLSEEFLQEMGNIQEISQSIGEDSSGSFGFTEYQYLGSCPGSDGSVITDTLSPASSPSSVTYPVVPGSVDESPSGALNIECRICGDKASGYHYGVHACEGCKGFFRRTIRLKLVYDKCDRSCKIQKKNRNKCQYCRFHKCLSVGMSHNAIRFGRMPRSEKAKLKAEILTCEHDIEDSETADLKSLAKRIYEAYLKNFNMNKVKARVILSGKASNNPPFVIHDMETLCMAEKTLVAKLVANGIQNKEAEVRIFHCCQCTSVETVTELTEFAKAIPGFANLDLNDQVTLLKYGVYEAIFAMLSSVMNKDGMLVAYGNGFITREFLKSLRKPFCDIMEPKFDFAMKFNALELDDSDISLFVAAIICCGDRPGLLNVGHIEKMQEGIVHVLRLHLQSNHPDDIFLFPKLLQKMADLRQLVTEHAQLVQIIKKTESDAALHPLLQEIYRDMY
UniProt P17948, whole entry, looked up: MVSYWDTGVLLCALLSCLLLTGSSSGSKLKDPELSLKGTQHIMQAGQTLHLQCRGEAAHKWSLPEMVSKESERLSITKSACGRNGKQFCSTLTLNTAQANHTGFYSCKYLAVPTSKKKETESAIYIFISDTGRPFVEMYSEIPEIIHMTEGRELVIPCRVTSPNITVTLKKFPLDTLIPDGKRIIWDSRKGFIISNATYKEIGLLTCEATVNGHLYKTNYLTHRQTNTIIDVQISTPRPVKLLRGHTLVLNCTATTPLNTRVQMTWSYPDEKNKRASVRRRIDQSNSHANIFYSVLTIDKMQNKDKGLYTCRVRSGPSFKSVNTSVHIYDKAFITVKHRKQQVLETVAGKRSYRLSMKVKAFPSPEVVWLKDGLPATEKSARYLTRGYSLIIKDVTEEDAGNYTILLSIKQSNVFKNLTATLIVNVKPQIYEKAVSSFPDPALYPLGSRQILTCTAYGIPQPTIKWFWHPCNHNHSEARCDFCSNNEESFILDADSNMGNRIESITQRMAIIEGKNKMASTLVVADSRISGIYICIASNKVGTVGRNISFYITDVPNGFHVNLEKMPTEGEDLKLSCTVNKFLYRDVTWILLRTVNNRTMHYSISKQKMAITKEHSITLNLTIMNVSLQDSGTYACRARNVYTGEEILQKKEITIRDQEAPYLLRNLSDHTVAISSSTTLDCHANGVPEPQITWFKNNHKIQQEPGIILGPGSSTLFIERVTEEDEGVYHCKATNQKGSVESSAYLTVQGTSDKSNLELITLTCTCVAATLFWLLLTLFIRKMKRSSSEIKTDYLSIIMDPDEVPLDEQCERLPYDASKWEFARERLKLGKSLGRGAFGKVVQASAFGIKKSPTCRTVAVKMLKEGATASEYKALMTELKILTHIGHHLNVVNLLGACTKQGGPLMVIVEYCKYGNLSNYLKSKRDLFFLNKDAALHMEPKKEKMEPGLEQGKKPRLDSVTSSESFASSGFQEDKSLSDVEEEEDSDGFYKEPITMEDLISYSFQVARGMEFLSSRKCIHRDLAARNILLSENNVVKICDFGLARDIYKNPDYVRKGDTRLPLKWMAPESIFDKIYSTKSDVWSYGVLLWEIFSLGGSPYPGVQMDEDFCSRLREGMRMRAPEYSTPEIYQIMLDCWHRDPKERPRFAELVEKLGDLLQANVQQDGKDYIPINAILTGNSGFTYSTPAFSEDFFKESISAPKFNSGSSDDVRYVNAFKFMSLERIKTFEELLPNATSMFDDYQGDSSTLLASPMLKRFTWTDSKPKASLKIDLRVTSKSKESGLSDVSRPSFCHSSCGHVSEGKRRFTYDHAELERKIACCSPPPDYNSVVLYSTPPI
UniProt Q01717: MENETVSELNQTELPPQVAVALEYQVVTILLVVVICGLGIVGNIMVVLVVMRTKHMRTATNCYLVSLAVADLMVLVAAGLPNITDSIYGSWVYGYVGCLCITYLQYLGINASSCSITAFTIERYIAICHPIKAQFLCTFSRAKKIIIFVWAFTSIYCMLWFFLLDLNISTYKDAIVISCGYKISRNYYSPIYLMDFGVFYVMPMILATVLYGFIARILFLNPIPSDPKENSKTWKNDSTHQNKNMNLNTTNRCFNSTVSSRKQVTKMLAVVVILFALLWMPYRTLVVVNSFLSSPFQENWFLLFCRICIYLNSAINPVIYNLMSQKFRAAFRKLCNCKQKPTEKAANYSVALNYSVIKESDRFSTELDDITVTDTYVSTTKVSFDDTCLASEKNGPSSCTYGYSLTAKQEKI
UniProt P05979, whole entry, looked up: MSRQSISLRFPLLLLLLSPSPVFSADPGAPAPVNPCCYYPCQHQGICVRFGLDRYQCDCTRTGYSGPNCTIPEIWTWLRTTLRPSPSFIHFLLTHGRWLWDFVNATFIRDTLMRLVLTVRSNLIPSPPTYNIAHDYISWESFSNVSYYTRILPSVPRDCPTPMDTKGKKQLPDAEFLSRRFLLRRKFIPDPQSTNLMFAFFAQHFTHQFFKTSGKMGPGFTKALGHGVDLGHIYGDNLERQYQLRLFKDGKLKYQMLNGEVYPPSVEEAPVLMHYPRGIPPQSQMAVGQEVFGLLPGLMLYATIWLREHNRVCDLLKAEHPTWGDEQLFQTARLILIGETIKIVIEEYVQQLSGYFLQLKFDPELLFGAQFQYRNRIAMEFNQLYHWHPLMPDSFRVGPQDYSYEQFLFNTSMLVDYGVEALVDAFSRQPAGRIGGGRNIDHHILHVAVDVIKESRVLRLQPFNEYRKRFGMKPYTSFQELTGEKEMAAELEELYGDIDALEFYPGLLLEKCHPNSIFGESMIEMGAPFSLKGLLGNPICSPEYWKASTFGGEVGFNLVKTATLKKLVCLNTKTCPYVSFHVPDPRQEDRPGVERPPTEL
UniProt Q96RI1: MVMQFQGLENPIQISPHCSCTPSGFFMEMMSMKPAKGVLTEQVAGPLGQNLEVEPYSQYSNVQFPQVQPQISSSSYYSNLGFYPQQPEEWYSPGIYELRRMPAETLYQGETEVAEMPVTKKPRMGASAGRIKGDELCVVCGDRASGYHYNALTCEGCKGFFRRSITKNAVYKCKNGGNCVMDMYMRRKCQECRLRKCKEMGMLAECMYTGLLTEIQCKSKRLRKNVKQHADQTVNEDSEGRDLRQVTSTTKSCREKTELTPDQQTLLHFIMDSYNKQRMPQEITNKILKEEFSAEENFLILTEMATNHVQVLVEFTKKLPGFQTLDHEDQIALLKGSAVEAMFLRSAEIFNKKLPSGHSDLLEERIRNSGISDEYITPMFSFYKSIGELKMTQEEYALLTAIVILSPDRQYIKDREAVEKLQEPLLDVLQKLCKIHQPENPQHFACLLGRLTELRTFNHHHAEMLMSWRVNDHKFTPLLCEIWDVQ
UniProt P21709: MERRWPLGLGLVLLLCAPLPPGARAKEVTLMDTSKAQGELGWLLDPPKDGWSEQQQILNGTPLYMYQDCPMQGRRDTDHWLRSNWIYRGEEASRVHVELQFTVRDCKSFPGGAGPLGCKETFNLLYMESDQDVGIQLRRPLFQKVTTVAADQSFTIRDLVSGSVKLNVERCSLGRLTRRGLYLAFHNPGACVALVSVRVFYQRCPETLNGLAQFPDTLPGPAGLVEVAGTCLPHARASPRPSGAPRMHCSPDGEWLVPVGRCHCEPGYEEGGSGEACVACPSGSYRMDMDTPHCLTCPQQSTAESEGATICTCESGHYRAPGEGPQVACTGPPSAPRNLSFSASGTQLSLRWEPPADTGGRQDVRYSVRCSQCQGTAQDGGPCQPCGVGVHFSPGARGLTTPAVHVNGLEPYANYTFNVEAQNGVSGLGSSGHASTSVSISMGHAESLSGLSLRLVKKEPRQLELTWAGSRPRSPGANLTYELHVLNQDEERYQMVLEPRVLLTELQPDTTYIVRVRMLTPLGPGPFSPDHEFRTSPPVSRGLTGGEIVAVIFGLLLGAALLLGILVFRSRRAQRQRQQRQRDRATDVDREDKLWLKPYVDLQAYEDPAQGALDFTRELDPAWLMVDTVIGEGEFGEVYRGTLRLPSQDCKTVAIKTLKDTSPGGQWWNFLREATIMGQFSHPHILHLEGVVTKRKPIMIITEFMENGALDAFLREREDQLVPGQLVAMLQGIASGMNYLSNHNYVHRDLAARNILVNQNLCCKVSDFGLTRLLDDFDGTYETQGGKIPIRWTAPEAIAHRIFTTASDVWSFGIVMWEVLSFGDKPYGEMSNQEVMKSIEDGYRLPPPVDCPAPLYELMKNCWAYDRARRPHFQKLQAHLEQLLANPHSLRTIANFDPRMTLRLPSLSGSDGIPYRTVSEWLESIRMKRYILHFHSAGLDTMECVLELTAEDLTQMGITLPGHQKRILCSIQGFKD
UniProt P23975, whole entry, looked up: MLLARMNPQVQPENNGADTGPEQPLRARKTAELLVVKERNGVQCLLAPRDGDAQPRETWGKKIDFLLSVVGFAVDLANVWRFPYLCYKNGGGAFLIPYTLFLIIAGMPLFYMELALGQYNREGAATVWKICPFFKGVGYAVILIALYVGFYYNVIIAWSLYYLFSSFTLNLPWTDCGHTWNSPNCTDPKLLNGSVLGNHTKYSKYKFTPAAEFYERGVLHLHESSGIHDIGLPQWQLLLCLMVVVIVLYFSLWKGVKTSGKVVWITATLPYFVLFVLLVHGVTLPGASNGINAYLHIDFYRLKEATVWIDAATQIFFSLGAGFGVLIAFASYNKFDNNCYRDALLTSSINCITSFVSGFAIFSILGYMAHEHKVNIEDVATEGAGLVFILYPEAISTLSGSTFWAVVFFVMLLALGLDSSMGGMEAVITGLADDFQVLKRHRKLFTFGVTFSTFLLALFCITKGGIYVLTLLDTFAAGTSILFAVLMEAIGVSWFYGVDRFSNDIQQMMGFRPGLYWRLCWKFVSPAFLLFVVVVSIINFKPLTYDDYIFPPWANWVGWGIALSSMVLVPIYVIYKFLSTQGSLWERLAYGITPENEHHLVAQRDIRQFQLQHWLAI
UniProt Q92731, whole entry, looked up: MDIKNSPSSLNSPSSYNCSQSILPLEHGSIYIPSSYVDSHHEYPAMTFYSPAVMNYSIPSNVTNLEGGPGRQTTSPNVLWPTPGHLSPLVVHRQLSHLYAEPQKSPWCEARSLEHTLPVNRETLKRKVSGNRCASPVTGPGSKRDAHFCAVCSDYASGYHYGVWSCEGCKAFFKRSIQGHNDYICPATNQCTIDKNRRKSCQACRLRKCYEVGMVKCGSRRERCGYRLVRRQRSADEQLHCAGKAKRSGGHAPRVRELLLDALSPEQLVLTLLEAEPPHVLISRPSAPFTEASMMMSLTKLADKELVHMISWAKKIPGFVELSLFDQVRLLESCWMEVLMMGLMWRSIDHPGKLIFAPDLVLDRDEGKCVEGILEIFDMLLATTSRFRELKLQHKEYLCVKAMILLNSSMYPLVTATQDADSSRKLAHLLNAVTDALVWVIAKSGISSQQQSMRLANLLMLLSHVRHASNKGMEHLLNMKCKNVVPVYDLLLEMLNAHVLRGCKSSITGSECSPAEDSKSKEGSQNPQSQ
UniProt P10275: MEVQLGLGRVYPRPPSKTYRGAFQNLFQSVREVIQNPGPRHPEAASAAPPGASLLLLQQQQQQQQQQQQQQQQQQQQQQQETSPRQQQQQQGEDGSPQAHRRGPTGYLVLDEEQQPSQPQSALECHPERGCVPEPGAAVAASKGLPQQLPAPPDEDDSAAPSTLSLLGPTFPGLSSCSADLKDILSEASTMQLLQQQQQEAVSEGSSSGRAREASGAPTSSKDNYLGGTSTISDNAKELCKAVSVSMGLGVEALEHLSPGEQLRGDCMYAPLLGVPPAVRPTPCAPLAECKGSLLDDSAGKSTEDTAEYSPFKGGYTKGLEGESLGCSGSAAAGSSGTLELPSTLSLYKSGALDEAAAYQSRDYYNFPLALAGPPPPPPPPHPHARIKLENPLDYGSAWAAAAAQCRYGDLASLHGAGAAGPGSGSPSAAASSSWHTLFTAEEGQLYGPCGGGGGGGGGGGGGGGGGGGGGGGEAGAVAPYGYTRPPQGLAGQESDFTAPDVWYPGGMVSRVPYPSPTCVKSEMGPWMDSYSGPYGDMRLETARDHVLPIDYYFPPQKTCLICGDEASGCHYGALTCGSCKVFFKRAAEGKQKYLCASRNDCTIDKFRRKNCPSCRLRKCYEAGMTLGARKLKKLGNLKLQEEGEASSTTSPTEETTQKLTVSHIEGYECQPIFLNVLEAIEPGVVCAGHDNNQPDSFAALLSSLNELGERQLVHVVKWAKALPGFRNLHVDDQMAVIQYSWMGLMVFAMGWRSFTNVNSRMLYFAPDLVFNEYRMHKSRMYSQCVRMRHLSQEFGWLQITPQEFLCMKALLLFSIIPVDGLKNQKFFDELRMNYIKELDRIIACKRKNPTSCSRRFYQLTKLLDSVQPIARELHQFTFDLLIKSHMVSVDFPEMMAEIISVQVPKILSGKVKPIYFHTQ

Key:
[1] = target: human Peroxisome Proliferator-activated Receptor alpha (PPARa), PPARA (gene 5465) (UniProt Q07869); test: NVS_NR_hPPARa: NovaScreen (NVS) Nuclear Receptor Binding Assay for human Peroxisome Proliferator-activated Receptor alpha (PPARa) (AID 2283359);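 also: activity means loss of TR-FRET signal versus DMSO baseline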
Procedure, shortened: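 Cell-free binding assay with extracted human protein, read by TR-FRET 1 h after chemical dosing. Loss of signal relative to DMSO baseline indicates binding. Primary screen used duplicate single concentration (25 uM); actives followed up in concentration series.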

[2] = target: Nuclear receptor subfamily 1 group I member 2 (Homo sapiens) (UniProt O75469); test: NVS_NR_hPXR: NovaScreen (NVS) Nuclear Receptor Binding Assay for human Pregnane X Receptor (PXR) (AID 2283365);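 also: a drop in FRET signal versus DMSO baseline means the compound binds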
Procedure, shortened: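 Binding was measured by time-resolved fluorescence resonance energy transfer after a 2 h exposure of extracted human PXR protein without cells. Compounds were first tested at 25 uM in duplicate, with concentration series for actives; DMSO defined baseline.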

[3] = Tanguay_ZF_120hpf_CIRC_legacy: (Legacy) Oregon State University Tanguay Lab 120 Hour Post-fertilization zebrafish Assay for Circulatory Malformation (AID 2283651)
Procedure, shortened: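 Tropical 5D wild-type embryos, dechorionated with pronase at 4 hpf, were placed singly in wells at 6 hpf and exposed statically at 28C to 120 hpf (0.64% DMSO final). Circulatory malformation was scored present/absent by brightfield microscopy.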

[4] = Tanguay_ZF_120hpf_TRUN_legacy: (Legacy) Oregon State University Tanguay Lab 120 Hour Post-fertilization zebrafish Assay for Truncated Body (AID 2283655)
Procedure, shortened: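 5D wild-type larvae; pronase dechorionation; static exposure 6→120 hpf, 28C; DMSO 0.64% final; 5uM trimethyltin chloride positive control. Readout: presence/absence of truncated body, analyzed relative to DMSO.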

[5] = target: Peroxisome proliferator-activated receptor gamma (Homo sapiens) (UniProt P37231); test: NVS_NR_hPPARg: NovaScreen (NVS) Nuclear Receptor Binding Assay for human Peroxisome Proliferator-activated Receptor gamma (PPARg) (AID 2283370)
Procedure, shortened: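 Fluorescence polarization measures competitive binding to extracted PPARg in a cell-free format. Reading is taken at 2 h; activity is signal loss relative to DMSO. Screening at 25 uM in duplicate preceded confirmatory dose series.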

[6] = Tanguay_ZF_120hpf_OTIC_legacy: (Legacy) Oregon State University Tanguay Lab 120 Hour Post-fertilization zebrafish Assay for Otic Vesicle Malformation (AID 2283639)
Procedure, shortened: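 Tropical 5D wild-type zebrafish embryos were exposed statically in sealed, foil-covered plates at 28C until 120 hpf, with 0.64% (vol/vol) DMSO final. Otic vesicle malformation was scored present/absent by brightfield microscopy, with DMSO as baseline.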

[7] = Tanguay_ZF_120hpf_SOMI_legacy: (Legacy) Oregon State University Tanguay Lab 120 Hour Post-fertilization zebrafish Assay for Somite Malformation (AID 2283647)
Procedure, shortened: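 5D WT zebrafish; chorion removed 4 hpf; 1 embryo/well from 6 hpf; static exposure to 120 hpf, 28C, 0.64% DMSO final. Endpoint: somite malformation, binary, brightfield. Mortality excluded.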

[8] = target: human Vascular Endothelial Growth Factor Receptor 1 (VEGFR1), FLT1 (gene 2321) (UniProt P17948); test: NVS_ENZ_hVEGFR1: NovaScreen (NVS) Enzymatic Assay for human Vascular Endothelial Growth Factor Receptor 1 (VEGFR1) (AID 2283226)
Procedure, shortened: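 Cell-free assay of recombinant human VEGFR1 kinase with substrate, measured 1 h after dosing; fluorescence with electrophoretic mobility-shift separation of substrate and product, referenced to DMSO; primary screen at 25 uM in duplicate, actives then run in concentration series.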

[9] = target: rat Thyrotropin Releasing Hormone Receptor (TRH), Trhr (gene 25570) (UniProt Q01717); test: NVS_GPCR_rTRH: NovaScreen (NVS) G Protein-Coupled Receptor Assay for rat Thyrotropin Releasing Hormone Receptor (TRH) (AID 2283329);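 also: hit means lower bound tracer signal versus DMSO baseline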
Procedure, shortened: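 Cell-free radioligand binding on rat forebrain membranes; bound tracer measured by filter-based scintillation counting 4 hours after dosing. Loss of signal versus DMSO baseline indicates displacement; primary screen at 25 uM in duplicate, actives then run in concentration series.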

[10] = CCTE_Deisenroth_AIME_384WELL_CTox_Inactive: Cytotoxicity Assessment (CTOX) in CCTE's 384-well Estrogen Receptor Transactivation Assay without AIME metabolic competence (metabolism negative), Deisenroth Lab (AID 2284039);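 also: cell viability via live-cell protease substrate cleaved to fluorescent probe; cells exposed 24 h to medium preincubated 2 h with alginate-water beads without S9; loss of fluorescence signal means loss of viability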
Procedure, shortened: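 VM7Luc4E2 human breast cells received conditioned medium from a 2 h incubation of chemical with alginate-water microspheres (no S9), then were exposed 24 h. Viability was read as protease-substrate cleavage to a fluorescent probe; loss of signal was fitted bidirectionally over 0.002–200 uM.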

[11] = target: sheep Cyclooxygenase-1 (Cox1), PTGS1 (gene 443551) (UniProt P05979); test: NVS_ENZ_oCOX1: NovaScreen (NVS) Enzymatic Assay for sheep Cyclooxygenase-1 (Cox1) (AID 2283239);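 also: actives reduce cyclooxygenase activity so potencies are for inhibitors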
Procedure, shortened: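 Native ovine seminal vesicle protein serves as enzyme source in this biochemical assay. Colorimetric signal is recorded 0.66 h after chemical addition, and decreases versus the DMSO control define activity.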

[12] = Tanguay_ZF_120hpf_PFIN_legacy: (Legacy) Oregon State University Tanguay Lab 120 Hour Post-fertilization zebrafish Assay for Pectoral Fin Malformation (AID 2283648);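 also: each larva judged yes or no for fin defect by brightfield with dead larvae skipped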
Procedure, shortened: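 Tropical 5D wild-type embryos, dechorionated with pronase at 4 hpf, were placed singly in wells at 6 hpf and statically exposed until 120 hpf at 28C, sealed and dark, with 0.64% (vol/vol) final DMSO; pectoral fin malformation scored present/absent.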

[13] = target: Bile acid receptor (Homo sapiens) (UniProt Q96RI1); test: OT_FXR_FXRSRC1_1440: Odyssey Thera (OT) 24-hour HEK293T Protein-Complementation Assay for Farnesoid X receptor/SRC-1 Co-activator (AID 2283384)
Procedure, shortened: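 HEK293T cells were dosed with compound and read 24 h later by fluorescence intensity from protein-fragment complementation reporting FXR/SRC-1 co-activator interaction. Gain of signal was fitted relative to DMSO negative control as baseline.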

[14] = ACEA_AR_agonist_AUC_viability: ACEA Biosciences xCELLigence Real-Time Cell Analysis on Androgen Receptor Agonism for Viability (AID 2283775);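 also: viability read 80 hours after compound addition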
Procedure, shortened: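 Read-out is area under the impedance curve at 80 h post-dose in 22Rv1 cells, with DMSO as baseline and signal loss taken as reduced viability. Compounds ran in duplicate from 100 uM final.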

[15] = ACEA_AR_antagonist_AUC_viability: ACEA Biosciences xCELLigence Real-Time Cell Analysis on Androgen Receptor Antagonism for Viability (AID 2283776);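 also: 22Rv1 human prostate cancer cells growing on impedance electrode plates; area under impedance growth curve at 80 h after dosing as viability; hits lower the growth signal relative to DMSO meaning cytotoxicity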
Procedure, shortened: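 Real-time electrical impedance tracks 22Rv1 proliferation after continuous compound exposure (top 100 uM final, 1:4 steps, 8 concentrations). The 80 h area-under-curve serves as the cytotoxicity readout relative to DMSO.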

[16] = target: human Ephrin type-A Receptor 1 (EphA1), EPHA1 (gene 2041) (UniProt P21709); test: NVS_ENZ_hEphA1: NovaScreen (NVS) Enzymatic Assay for human Ephrin type-A Receptor 1 (EphA1) (AID 2283158);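 also: activity is signal loss versus DMSO meaning EphA1 kinase inhibition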
Procedure, shortened: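 Biochemical kinase assay run cell-free; 1 h incubation; readout is fluorescence with mobility-shift separation of product. Concentration-response up to 50 uM for actives from a 25 uM screen.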

[17] = target: human Norepinephrine Transporter (NET), SLC6A2 (gene 6530) (UniProt P23975); test: NVS_TR_hNET: NovaScreen (NVS) Transporter Assay for human Norepinephrine Transporter (NET) (AID 2283377);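 also: cell-free membrane protein extracted from CHO cells expressing human NET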
Procedure, shortened: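 Radioligand binding to human NET in cell-free CHO-derived protein preparations, read by filter-based scintillation counting 1 hour after dosing. Loss of signal versus DMSO baseline indicated displacement; primary screening in duplicate at 25 uM, actives then titrated.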

[18] = target: Estrogen receptor beta (Homo sapiens) (UniProt Q92731); test: OT_ER_ERbERb_0480: Odyssey Thera (OT) 8-hour HEK293T Protein-Complementation Assay for Estrogen Receptor-beta/-beta Homodimer (AID 2283357);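 also: active means signal gain over DMSO baseline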
Procedure, shortened: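 Readout: increase in mean fluorescence intensity (nucleus for agonists; nucleus plus cytoplasm for antagonists) relative to DMSO, from a reporter-fragment complementation of human ER-beta LBD homodimer in HEK293T cells dosed 8 hours.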

AR (gene 367) = AR (gene 367) (UniProt P10275); test: ACEA_AR_agonist_80hr: ACEA Biosciences xCELLigence Real-Time Cell Analysis on Androgen Receptor Agonism for Proliferation (AID 2283783);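 also: hits increase impedance growth signal above DMSO baseline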
Procedure, shortened: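 22Rv1 human prostate cancer cells were seeded after preconditioning in assay medium and monitored overnight, then dosed in an eight-point 1:4 dilution series from 100 uM (≤0.5% DMSO). Impedance-based growth was read at 80 h, gain-of-signal versus DMSO.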

[19] = target: Nucleoli Translocation, AR (gene 367) (UniProt P10275); test: UPITT_HCI_U2OS_AR_TIF2_Nucleoli_Agonist: University of Pittsburgh U2OS Androgen Receptor-Transcriptional Intermediary Factor 2 (AR-TIF2) Agonism High Content Imaging Assay for Nucleoli Translocation (AID 2283998)
Procedure, shortened: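 Red-tagged human androgen receptor co-expressed with GFP-tagged TIF2 serves as the binding reporter. Primary testing used 20 uM final (0.2% DMSO); follow-up dose response covered 0.195 to 50 uM final (0.5% DMSO).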

SMILES: Cc1cc(C)c(O)c(C)c1
- outcome [1]: inactive
- AC50 [2]: inconclusive: 6.67 µM
- AC50 [3]: inconclusive: 43.9 µM
- AC50 [4]: inconclusive: 39.7 µM

SMILES: CCCC(=O)O
- AC50 [5]: inconclusive: 4.96 µM
- AC50 [6]: inconclusive: 0.357 µM
- outcome [7]: inactive

SMILES: CCCCCCCCCCCC
- AC50 [8]: inconclusive: 5.03 µM
- AC50 [9]: inconclusive: 0.455 µM
- AC50 [5]: active: 0.401 µM
- outcome [5]: inactive
- AC50 [10]: active: 100 µM

SMILES: CCCCNC(=O)NS(=O)(=O)c1ccc(C)cc1
- AC50 [11]: inconclusive: 25 µM

SMILES: CCCCOCCO
- outcome [8]: inactive
- AC50 [6]: inconclusive: 1.86 µM
- outcome [12]: inactive
- AC50 [4]: inconclusive: 82.8 µM

SMILES: CCN(Cc1cccc(S(=O)(=O)O)c1)c1ccc(C(=C2C=CC(=[N+](CC)Cc3cccc(S(=O)(=O)O)c3)C=C2)c2ccc(O)cc2S(=O)(=O)[O-])cc1
- AC50 [2]: active: 2.41 µM
- AC50 [13]: inconclusive: 15.2 µM
- AC50 [14]: inconclusive: 0.244 µM
- AC50 [15]: inconclusive: 0.0908 µM
- AC50 [10]: active: 100 µM

SMILES: CCCCCCCCCCCCCCCCCC[N+](C)(C)Cc1ccccc1
- outcome [16]: inactive
- outcome [8]: inactive
- AC50 [17]: active: 2.49 µM

SMILES: NC(=O)N(O)[C@@H]1C=C[C@H](Oc2cccc(Oc3ccc(F)cc3)c2)C1
- AC50 [18]: active: 50 µM
- AC50 [5]: inconclusive: 25 µM
- AC50 [17]: active: 15 µM
- AC50 [6]: inconclusive: 4.19 µM
- AC50 [3]: inconclusive: 16.7 µM

SMILES: C[C@H]1O[C@@H](O[C@H]2[C@@H](O)C[C@H](O[C@H]3[C@@H](O)C[C@H](O[C@H]4CC[C@@]5(C)[C@H](CC[C@@H]6[C@@H]5C[C@@H](O)[C@]5(C)[C@@H](C7=CC(=O)OC7)CC[C@]65O)C4)O[C@@H]3C)O[C@@H]2C)C[C@H](O)[C@@H]1O
- AC50 [9]: inconclusive: 0.421 µM
- outcome [18]: inactive
- AC50 [2]: inconclusive: 2.7 µM
- outcome [5]: inactive
- AC50 [13]: inconclusive: 0.269 µM
- AC50 [14]: active: 0.00928 µM
- outcome (AR (gene 367)): inactive
- AC50 [19]: inconclusive: 33.8 µM
- AC50 [10]: inconclusive: 0.00176 µM

SMILES: O=S(=O)(O)c1ccccc1
- AC50 [9]: inconclusive: 0.225 µM
- AC50 [14]: inconclusive: 0.106 µM
- AC50 [15]: inconclusive: 4.53 µM
- AC50 [10]: inconclusive: 0.0002 µM

SMILES: [O-]n1ccccc1=S.[O-]n1ccccc1=S.[Zn+2]
- outcome [8]: inactive
- AC50 [11]: inconclusive: 25 µM
- AC50 [9]: inconclusive: 0.74 µM

SMILES: On1ccccc1=S
- outcome [6]: inactive

SMILES: OCCCCC(O)CO (centres undefined)
- AC50 [16]: active: 5.49 µM
- AC50 [8]: inconclusive: 23.9 µM
